Test results from article PMC10883916, “Cbp1 and Cren7 form chromatin-like structures that ensure efficient transcription of long CRISPR arrays”.

Biological target: Cbp1ΔHTH3 (Cbp1 with the third helix-turn-helix domain deleted) (S. solfataricus P2)
Experiment: native gel or EMSA; 800 pM 5'-radiolabelled dsDNA with one CRISPR repeat (A, D or F) or a non-canonical ISC1229 site, with 20 bp flanks (20 or 2 bp downstream); 12.5 nM Cbp1 (25 nM ΔHTH3), 3.125 to 25 nM Cren7; 10 mM MOPS pH 6.5, 100 mM KCl, 10 mM MgCl2, BSA, 10% glycerol, 5 mM DTT; 5 min at 75 °C; 6% native Tris-Glycine gel; both purified

B1: Cren7, S. solfataricus (protein, UniProt Q97ZE3 1-60)
chain: MSSGKKPVKVKTPAGKEAELVPEKVWALAPKGRKGVKIGLFKDPETGKYFRHKLPDDYPI
With B1 the binding was “no binding (tested: 12.5 to 25 nM Cren7 with 25 nM ΔHTH3)”.

No constants are given. Whether binding was seen depends on the method and setting.
